{"source": "PubChem BioAssay AID1259308 (NCATS, 2017)", "aim": "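Knock-downs that increase output of a recombinant reporter protein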 (primary screen)", "cells": "human HEK293 embryonic kidney cells stably expressing firefly luciferase (HEK-CMV-Luc2-Hygro)", "reagent": "single siRNA against human genes, 0.8 pmol siRNA per well", "time to read-out": "72 h", "detection": "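Reporter luminescence and viable-cell signal on separate replicate plates, given as percent of non-targeting control and median/MAD z-scores, plus per-cell luciferase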", "reading the numbers": "total luciferase, z-score: higher = more reporter protein produced", "call rule": "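An siRNA counts as active if its total luciferase robust z-score exceeds 3; genes with two or more such siRNAs out of three were retested with fresh siRNAs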", "meaning of the calls": "active = raised luciferase; inactive = no rise", "note": "In all, the deposit lists about 59,000 reagents; shown is an unselected part. About 1,510 of all reagents (2.6%) count as active. 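Calls use total luciferase alone and ignore viability, so some active siRNAs may act by altering cell number.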 Unmarked entries are inactive. The numbers tell different reagents against one gene apart. Not all columns of the deposit are shown. Reagent sequences are not shown."}
{"Target gene":"NUDT18 (nudix hydrolase 18)","reagent no.":1,"total luciferase, z-score":0.388}
{"Target gene":"NUDT18 (nudix hydrolase 18)","reagent no.":2,"total luciferase, z-score":0.726}
{"Target gene":"NUDT18 (nudix hydrolase 18)","reagent no.":3,"total luciferase, z-score":1.55}
{"Target gene":"ZNF625 (zinc finger protein 625)","reagent no.":1,"total luciferase, z-score":0.422}
{"Target gene":"ZNF625 (zinc finger protein 625)","reagent no.":2,"total luciferase, z-score":-0.797}
{"Target gene":"ZNF625 (zinc finger protein 625)","reagent no.":3,"total luciferase, z-score":0.731}
{"Target gene":"GLYAT (glycine-N-acyltransferase)","reagent no.":1,"total luciferase, z-score":-2.58}
{"Target gene":"GLYAT (glycine-N-acyltransferase)","reagent no.":2,"total luciferase, z-score":0.0455}
{"Target gene":"GLYAT (glycine-N-acyltransferase)","reagent no.":3,"total luciferase, z-score":0.234}
{"Target gene":"AEBP1 (AE binding protein 1)","reagent no.":1,"total luciferase, z-score":-1.48}
{"Target gene":"AEBP1 (AE binding protein 1)","reagent no.":2,"total luciferase, z-score":-1.91}
{"Target gene":"AEBP1 (AE binding protein 1)","reagent no.":3,"total luciferase, z-score":0.568}
{"Target gene":"NMNAT2 (nicotinamide nucleotide adenylyltransferase 2)","reagent no.":1,"total luciferase, z-score":-1.07}
{"Target gene":"NMNAT2 (nicotinamide nucleotide adenylyltransferase 2)","reagent no.":2,"total luciferase, z-score":"3.53 (active)"}
{"Target gene":"NMNAT2 (nicotinamide nucleotide adenylyltransferase 2)","reagent no.":3,"total luciferase, z-score":2.97}
{"Target gene":"ZNF624 (zinc finger protein 624)","reagent no.":1,"total luciferase, z-score":-0.552}
{"Target gene":"ZNF624 (zinc finger protein 624)","reagent no.":2,"total luciferase, z-score":-0.447}
{"Target gene":"ZNF624 (zinc finger protein 624)","reagent no.":3,"total luciferase, z-score":0.111}
{"Target gene":"TRIM25 (tripartite motif containing 25)","reagent no.":1,"total luciferase, z-score":-0.192}
{"Target gene":"TRIM25 (tripartite motif containing 25)","reagent no.":2,"total luciferase, z-score":-0.16}
{"Target gene":"TRIM25 (tripartite motif containing 25)","reagent no.":3,"total luciferase, z-score":0.714}
{"Target gene":"SLA2 (Src like adaptor 2)","reagent no.":1,"total luciferase, z-score":0.253}
{"Target gene":"SLA2 (Src like adaptor 2)","reagent no.":2,"total luciferase, z-score":0.0782}
{"Target gene":"SLA2 (Src like adaptor 2)","reagent no.":3,"total luciferase, z-score":-1.72}
{"Target gene":"PAX1 (paired box 1)","reagent no.":1,"total luciferase, z-score":-1.58}
{"Target gene":"PAX1 (paired box 1)","reagent no.":2,"total luciferase, z-score":0.224}
{"Target gene":"PAX1 (paired box 1)","reagent no.":3,"total luciferase, z-score":0.687}
{"Target gene":"PRRT2 (proline rich transmembrane protein 2)","reagent no.":1,"total luciferase, z-score":0.367}
{"Target gene":"PRRT2 (proline rich transmembrane protein 2)","reagent no.":2,"total luciferase, z-score":0.782}
{"Target gene":"PRRT2 (proline rich transmembrane protein 2)","reagent no.":3,"total luciferase, z-score":1.33}
{"Target gene":"DPY30 (dpy-30 histone methyltransferase complex regulatory subunit)","reagent no.":1,"total luciferase, z-score":-0.113}
{"Target gene":"DPY30 (dpy-30 histone methyltransferase complex regulatory subunit)","reagent no.":2,"total luciferase, z-score":-0.88}
{"Target gene":"DPY30 (dpy-30 histone methyltransferase complex regulatory subunit)","reagent no.":3,"total luciferase, z-score":0.127}
{"Target gene":"BABAM2 (BRISC and BRCA1 A complex member 2)","reagent no.":1,"total luciferase, z-score":-0.511}
{"Target gene":"BABAM2 (BRISC and BRCA1 A complex member 2)","reagent no.":2,"total luciferase, z-score":-0.605}
{"Target gene":"BABAM2 (BRISC and BRCA1 A complex member 2)","reagent no.":3,"total luciferase, z-score":-0.127}
{"Target gene":"NSMCE2 (NSE2 SUMO ligase component of SMC5/6 complex)","reagent no.":1,"total luciferase, z-score":0.619}
{"Target gene":"NSMCE2 (NSE2 SUMO ligase component of SMC5/6 complex)","reagent no.":2,"total luciferase, z-score":1.8}
{"Target gene":"NSMCE2 (NSE2 SUMO ligase component of SMC5/6 complex)","reagent no.":3,"total luciferase, z-score":"3.34 (active)"}
{"Target gene":"EIF4G3 (eukaryotic translation initiation factor 4 gamma 3)","reagent no.":1,"total luciferase, z-score":-0.209}
{"Target gene":"EIF4G3 (eukaryotic translation initiation factor 4 gamma 3)","reagent no.":2,"total luciferase, z-score":-1.09}
{"Target gene":"EIF4G3 (eukaryotic translation initiation factor 4 gamma 3)","reagent no.":3,"total luciferase, z-score":0.00958}

Called active, among the entries above:
{"Target gene":"NMNAT2 (nicotinamide nucleotide adenylyltransferase 2)","reagent no.":2,"total luciferase, z-score":"3.53 (active)"}
{"Target gene":"NSMCE2 (NSE2 SUMO ligase component of SMC5/6 complex)","reagent no.":3,"total luciferase, z-score":"3.34 (active)"}
